Results reported in article PMC7949097.
These are yes or no findings as the source states them, for the method shown. In cells and extracts the contact can be indirect. Some binding calls cover weakened binding; strength is not graded here.

Biological target: T1, β1,4-galactosyltransferase 6 (B4GALT6) (UniProt Q9UBX8)
T1 sequence: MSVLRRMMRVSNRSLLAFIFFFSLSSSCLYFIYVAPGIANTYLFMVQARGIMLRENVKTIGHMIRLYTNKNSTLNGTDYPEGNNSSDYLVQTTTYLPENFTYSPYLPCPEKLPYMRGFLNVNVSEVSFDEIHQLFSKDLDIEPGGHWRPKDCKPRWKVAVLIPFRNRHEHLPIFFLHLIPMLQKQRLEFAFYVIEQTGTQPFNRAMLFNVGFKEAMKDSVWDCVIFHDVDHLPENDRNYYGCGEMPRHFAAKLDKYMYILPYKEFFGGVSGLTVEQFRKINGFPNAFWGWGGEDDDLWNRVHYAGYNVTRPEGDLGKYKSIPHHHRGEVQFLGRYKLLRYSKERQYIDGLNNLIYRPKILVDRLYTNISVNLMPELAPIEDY
Assay: split reporter; Bimolecular Fluorescence Complementation Assay; unpublished results

B1: Human Gb3/CD77 synthase (α1,4-galactosyltransferase) (enzyme, UniProt Q9NPC4 1-353)
chain: MSKPPDLLLRLLRGAPRQRVCTLFIIGFKFTFFVSIMIYWHVVGEPKEKGQLYNLPAEIPCPTLTPPTPPSHGPTPGNIFFLETSDRTNPNFLFMCSVESAARTHPESHVLVLMKGLPGGNASLPRHLGISLLSCFPNVQMLPLDLRELFRDTPLADWYAAVQGRWEPYLLPVLSDASRIALMWKFGGIYLDTDFIVLKNLRNLTNVLGTQSRYVLNGAFLAFERRHEFMALCMRDFVDHYNGWIWGHQGPQLLTRVFKKWCSIRSLAESRACRGVTTLPPEAFYPIPWQDWKKYFEDINPEELPRLLSATYAVHVWNKKSQGTRFEATSRALLAQLHARYCPTTHEAMKMYL
- binding: binds
